From PubChem BioAssay AID248 (DTP/NCI, 2004) come the findings set out here.

The subject of this experiment is L1210 leukemia ip in BDF1 mice, survival T/C. Put plainly: NCI In Vivo Anticancer Drug Screen. Data for tumor model L1210 Leukemia (intraperitoneal) in B6D2F1 (BDF1) mice. Particulars: T/C endpoint: mean survival time, higher T/C = longer survival.
The mark [1] stands for this setting: dose: 200.0 mg/kg/injection, schedule: Q01DX001 (ip), vehicle: other.
[2] abbreviates: dose: 400.0 mg/kg/injection, schedule: Q01DX001 (ip), vehicle: other.
Setting [3] is: dose: 200.0 mg/kg/injection, schedule: Q01DX001 (ip), vehicle: saline.
The mark [4] stands for this setting: dose: 400.0 mg/kg/injection, schedule: Q04DX003 (ip), vehicle: saline.
Where [5] appears, read: dose: 200.0 mg/kg/injection, schedule: Q04DX003 (ip), vehicle: saline.
Where [6] appears, read: dose: 20.0 mg/kg/injection, schedule: Q01DX001 (ip), vehicle: saline.
Where [7] appears, read: dose: 400.0 mg/kg/injection, schedule: Q01DX001 (ip), vehicle: saline.
Setting [8] is: dose: 200.0 mg/kg/injection, schedule: Q01DX009 (ip), vehicle: saline.
Where [9] appears, read: dose: 400.0 mg/kg/injection, schedule: Q01DX009 (ip), vehicle: saline.

Structures are written as SMILES. The list does not hold the whole screen: it gathers tests that were run many times, whatever their T/C, doses with no T/C, and many T/C values between a quarter and a half above the control. Further doses and runs are listed elsewhere. T/C gives the treated animals as a percentage of the vehicle group. Some doses have a count of surviving animals in place of a T/C: the source files T/C as zero there, which appears to mark a toxic dose or a test without result, not a measured value. Some doses without a T/C left all or most animals alive at the check, yet need not have been tolerated: the source hardly ever lists a survival T/C far under the control, and the zero likely stands for such cases as well. Counts of survivors are from the toxicity check (mostly the fifth day) where no day follows; animals may have died later. Schedule codes are those of the source, read here as Q, the interval in days (D) or hours (H), X, the number of doses. Some schedules carry Z or #; the key to these is not given. Where survival is the endpoint, the PubChem record calls one and a half times the control and up active, and a quarter to a half above the control has no call in these data; cut-offs in other NCI protocols can differ. Some entries were tested several times; the values are given in rising order. Some T/C values carry the count of animals alive at the toxicity check (mostly the fifth day); where none is given, no animal had died by that day.

For the compound `CCCCSc1ncc(C)c(N(C)C)n1`, the survivor count reads like this: (dose: 100.0 mg/kg/injection, schedule: Q01DX Z (ip), vehicle: methylcellulose (MC)) 5 of 6; (dose: 200.0 mg/kg/injection, schedule: Q01DX Z (ip), vehicle: methylcellulose (MC)) 0 of 6.
Turning to `O=[N+]([O-])c1ccc(N/N=C\c2ccc(OCc3ccccc3)cc2)c([N+](=O)[O-])c1`, the survivor count under setting [1] is on record as 6 of 6 and the survivor count under setting [2] is 6 of 6.
As to `CC(CC(c1ccccc1)c1ccccc1)[N+](C)(C)C` (configuration not stated), the survivor count is recorded as 0 of 4 (dose: 100.0 mg/kg/injection, schedule: Q01DX001 (ip), vehicle: carboxymethylcellulose (CMC)); 0 of 4 (dose: 200.0 mg/kg/injection, schedule: Q01DX001 (ip), vehicle: carboxymethylcellulose (CMC)); 0 of 4 (dose: 400.0 mg/kg/injection, schedule: Q01DX001 (ip), vehicle: carboxymethylcellulose (CMC)).
As for `CCOC(OCC)C(=O)OCC(=O)[C@]1(O)Cc2c(O)c3c(c(O)c2[C@@H](OC2CC(N)C(O)C(C)O2)C1)C(=O)c1c(OC)cccc1C3=O` (some centres not stated), the T/C by setting is: (dose: 0.5 mg/kg/injection, schedule: Q01DX009 (ip), vehicle: saline) 133 % of control; (dose: 1.0 mg/kg/injection, schedule: Q01DX009 (ip), vehicle: saline) 143 % of control. Also, the survivor count (dose: 8.0 mg/kg/injection, schedule: Q01DX009 (ip), vehicle: saline) is 10 of 10.
Take `C[NH-].C[NH-].[Br][Pt+2][Br]`: the T/C reads like this: (dose: 1.25 mg/kg/injection, schedule: Q01DX009 (ip), vehicle: water) 128 and 133 % of control; (dose: 1.3 mg/kg/injection, schedule: Q01DX005 (ip), vehicle: saline with Tween-80) 129 % of control; (dose: 1.3 mg/kg/injection, schedule: Q01DX009 (ip), vehicle: other) 125 % of control; (dose: 2.0 mg/kg/injection, schedule: Q01DX005 (ip), vehicle: saline with Tween-80) 129 % of control; (dose: 2.5 mg/kg/injection, schedule: Q01DX009 (ip), vehicle: water) 125 and 132 % of control; (dose: 3.0 mg/kg/injection, schedule: Q01DX009 (ip), vehicle: other) 126 % of control. Further, the T/C by setting is: (dose: 5.0 mg/kg/injection, schedule: Q01DX009 (ip), vehicle: water) 130 % of control; (dose: 12.5 mg/kg/injection, schedule: Q01DX001 (ip), vehicle: other) 125 % of control. Also, the survivor count is, setting by setting: (dose: 4.5 mg/kg/injection, schedule: Q01DX005 (ip), vehicle: saline with Tween-80) 6 of 6; (dose: 10.0 mg/kg/injection, schedule: Q01DX009 (ip), vehicle: water) 10 of 10; (dose: 100.0 mg/kg/injection, schedule: Q01DX001 (ip), vehicle: other) 0 of 6; under setting [1], 0 of 6; under setting [2], 0 of 6.
On to `O=C(O)C(=S)Cc1cn[nH]n1`, for which the survivor count under setting [3] is reported as 4 of 4.
For `c1nc(N2CC2)c2cnn(C3CCCCO3)c2n1` (configuration not stated), under setting [4], the survivor count was 2 of 6.
For the compound `COC1=NS(=O)(=O)C=C(c2ccccc2)O1`, for the setting “dose: 150.0 mg/kg/injection, schedule: Q04DX002 (ip), vehicle: Klucel (hydroxypropylcellulose) (HPC)”, the survivor count is reported as 0 of 3.
In the case of `CC(C)NC(=O)CCl`, the survivor count was 5 of 6 under setting [5] and 0 of 6 under setting [4].
For the compound `COc1cc(Cl)ccc1C`, where the note is “dose: 400.0 mg/kg/injection, schedule: Q04DX003 (ip), vehicle: saline with Tween-80”, the survivor count is on record as 2 of 6.
For the compound `CCC1CC2CN3CCc4c([nH]c5ccccc45)C(C(=O)OC)(C2)C13` (configuration not stated), the survivor count (dose: 300.0 mg/kg/injection, schedule: Q01DX001 (ip), vehicle: other) is reported as 0 of 6.
For `N#CSCCOCCSC#N`, the survivor count under setting [6] is 0 of 4; the survivor count (dose: 40.0 mg/kg/injection, schedule: Q01DX001 (ip), vehicle: saline) is 0 of 4; the survivor count (dose: 80.0 mg/kg/injection, schedule: Q01DX001 (ip), vehicle: saline) is on record as 0 of 4; the survivor count (dose: 100.0 mg/kg/injection, schedule: Q01DX001 (ip), vehicle: saline) was 0 of 4; the survivor count under setting [3] is listed as 0 of 4; the survivor count under setting [7] is given as 0 of 4.
Take `NC(CSCc1ccccc1)CSCc1ccccc1`: the survivor count under setting [8] was 0 of 6.
On to `CCCCOc1ccc(CC(N)C(=O)O)cc1N(CCCl)CCCl` (configuration not stated), for which the T/C is, setting by setting: (dose: 14.0 mg/kg/injection, schedule: Q01DX001 (ip), vehicle: saline) 131 % of control; (dose: 15.0 mg/kg/injection, schedule: Q01DX001 (ip), vehicle: carboxymethylcellulose (CMC)) 134 and 137 % of control; under setting [6], 128 % of control; (dose: 22.5 mg/kg/injection, schedule: Q01DX001 (ip), vehicle: carboxymethylcellulose (CMC)) 136 % of control; (dose: 30.0 mg/kg/injection, schedule: Q01DX001 (ip), vehicle: saline) 136 % of control; (dose: 120.0 mg/kg/injection, schedule: Q01DX001 (ip), vehicle: saline) 131 % of control [4 of 6 alive]. Moreover, the survivor count is listed as 2 of 6 (dose: 30.0 mg/kg/injection, schedule: Q01DX001 (ip), vehicle: carboxymethylcellulose (CMC)); 0 of 6 (dose: 60.0 mg/kg/injection, schedule: Q01DX001 (ip), vehicle: carboxymethylcellulose (CMC)); 0 of 6 (dose: 75.0 mg/kg/injection, schedule: Q01DX001 (sc), vehicle: carboxymethylcellulose (CMC)); 0 of 6 (dose: 150.0 mg/kg/injection, schedule: Q01DX001 (sc), vehicle: carboxymethylcellulose (CMC)); 0 of 6 (dose: 300.0 mg/kg/injection, schedule: Q01DX001 (sc), vehicle: carboxymethylcellulose (CMC)).
Regarding `CNCCC=C1c2ccccc2CCc2ccccc21`, the survivor count (dose: 100.0 mg/kg/injection, schedule: Q01DX009 (ip), vehicle: saline) is reported as 2 of 6; the survivor count (dose: 100.0 mg/kg/injection, schedule: Q04DX003 (ip), vehicle: saline) was 1 of 4; the survivor count under setting [8] is 0 of 6; the survivor count under setting [5] was 0 of 4; the survivor count under setting [9] is 0 of 6; the survivor count under setting [4] was 1 of 4.
For the compound `O=C(Nc1ccc(C2=NCCCN2)cc1)c1ccc(C(=O)Nc2ccc(C3=NCCCN3)cc2)c(Cl)c1`, the survivor count is, setting by setting: (dose: 1.5 mg/kg/injection, schedule: Q01DX015 (ip), vehicle: water) 3 of 6; (dose: 3.0 mg/kg/injection, schedule: Q01DX015 (ip), vehicle: water) 3 of 6; (dose: 6.0 mg/kg/injection, schedule: Q01DX015 (ip), vehicle: water) 2 of 6; (dose: 12.5 mg/kg/injection, schedule: Q01DX015 (ip), vehicle: water) 0 of 6; (dose: 25.0 mg/kg/injection, schedule: Q01DX015 (ip), vehicle: water) 0 of 6; (dose: 50.0 mg/kg/injection, schedule: Q01DX015 (ip), vehicle: water) 0 of 6. For the setting “dose: 100.0 mg/kg/injection, schedule: Q01DX015 (ip), vehicle: water”, the survivor count is 0 of 6.
For `CC(=O)OCc1ccccn1`, the survivor count under setting [9] is given as 3 of 6.
Regarding `CCS(=O)c1ncc2cnccn12` (configuration not stated), the survivor count by setting is: (dose: 200.0 mg/kg/injection, schedule: Q01DX009 (ip), vehicle: water) 1 of 6; (dose: 400.0 mg/kg/injection, schedule: Q04DX003 (ip), vehicle: water) 0 of 6.
`CN(C)Cc1cc(O)c(CN(C)C)cc1O`: where the note is “dose: 100.0 mg/kg/injection, schedule: Q01DX009 (ip), vehicle: saline with Tween-80”, the survivor count was 3 of 6.
`CCc1ccncc1`: under setting [7], the survivor count is reported as 1 of 4.
Turning to `CC1(c2ccccc2)CCC(NN=C(N)N)=NC1` (configuration not stated), where the note is “dose: 30.0 mg/kg/injection, schedule: Q01DX Z (ip), vehicle: methylcellulose (MC)”, the survivor count is 3 of 6.
